# Laboratory results from the supplement of paper PMC3334620.
# In all, about 33,000 sequences were measured (“E-score (-0.5 to 0.5)”: median about -0.015, highest 2% from about 0.3 on). Some of the results follow.
# Molecular target: T1, Abf1 (UniProt P14164)
# T1 sequence: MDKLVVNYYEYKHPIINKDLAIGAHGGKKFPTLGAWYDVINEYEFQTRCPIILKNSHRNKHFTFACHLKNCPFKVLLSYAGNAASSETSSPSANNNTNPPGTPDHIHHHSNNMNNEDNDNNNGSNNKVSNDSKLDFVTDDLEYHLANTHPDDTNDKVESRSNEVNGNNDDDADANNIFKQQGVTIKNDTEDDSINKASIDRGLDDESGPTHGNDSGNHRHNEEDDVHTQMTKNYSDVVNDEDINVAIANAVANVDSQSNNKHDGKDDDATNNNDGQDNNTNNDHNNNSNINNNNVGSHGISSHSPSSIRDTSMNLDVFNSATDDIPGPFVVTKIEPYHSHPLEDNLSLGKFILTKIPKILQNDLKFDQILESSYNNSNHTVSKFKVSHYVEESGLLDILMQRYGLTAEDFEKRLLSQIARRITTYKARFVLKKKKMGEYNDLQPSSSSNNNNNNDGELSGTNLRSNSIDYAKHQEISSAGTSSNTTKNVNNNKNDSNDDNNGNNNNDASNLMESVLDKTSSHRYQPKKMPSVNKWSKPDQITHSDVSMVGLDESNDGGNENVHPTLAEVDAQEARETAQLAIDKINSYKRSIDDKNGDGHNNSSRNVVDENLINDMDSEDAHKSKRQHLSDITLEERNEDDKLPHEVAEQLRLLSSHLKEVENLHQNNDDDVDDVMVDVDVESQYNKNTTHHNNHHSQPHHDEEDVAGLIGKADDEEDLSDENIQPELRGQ
# Experiment: PBM E-score (8-mer binding enrichment) (E-score (-0.5 to 0.5)); higher = stronger / more preferred TF binding
# Settings: protein concentration: 200 nM; construct: GST-full length
# Description: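 Universal 'all 10-mer' protein binding microarrays (Agilent AMADID 015681) probed with GST-tagged S. cerevisiae TFs (full-length or DBD) made by in vitro transcription/translation (PURExpress), about 100-200 nM. Bound TF was detected with fluorescent anti-GST. Each ungapped 8-mer (which stands for itself and its reverse complement) is scored by the PBM enrichment score (E-score), a modified Wilcoxon-Mann-Whitney statistic from -0.5 to +0.5, computed with the Universal PBM Analysis Suite. Scale: above 0.35 generally sequence-specific binding.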
row,Sequence,PBM E-score
1,CTTTCTCA,0.243
2,AGGTGCCA,0.0519
3,AGATGGAG,-0.0333
4,CTTGATGC,-0.0892
5,AAGAACTT,0.0634
6,ACCCAACC,-0.127
7,TCGGCAGA,-0.0809
8,CCAATCTC,0.00749
9,ACCTAACC,0.0492
10,ACATGACA,0.256
11,AAATCAAG,0.157
12,GTATCTTA,0.171
13,CCAAATAA,0.157
14,ATGGTATG,-0.0589
15,CCAGGTGA,0.0382
16,ACCGCTTC,-0.12
17,AGGGGGAC,-0.269
18,CCGAGCAG,-0.172
19,AACACCAG,-0.0499
20,ATTAACCA,-0.093
21,CCTCCGGA,-0.188
22,GTGTTTTA,0.128
23,AACGAGGT,0.0529
24,AGTACACT,-0.173
25,GTTCCGAA,0.0881

row,Sequence,PBM E-score
1,TCAGCAGA,-0.0392
2,AACTGGTA,-0.204
3,TTTCAAAA,0.161
4,TAGGGGGA,-0.255
5,CCCCGATC,-0.202
6,CTATATTC,0.037
7,CTAATGGA,-0.0878
8,ACGAGGCT,0.22
9,GGGCATGA,-0.0446
10,GTCAAGCA,-0.207
11,AGTTAAAT,0.167
12,GTCCCTCA,-0.0534
13,CGGTCTCA,0.0541
14,ATCTCCAA,0.0281
15,CCGGAAGC,-0.0686
16,ACAGTAAG,0.208
17,ATTCAACC,-0.0361
18,TAAGTGGA,-0.0224
19,AGTCGCTG,-0.00097
20,TAGCGGGA,-0.182
21,GCTACAAC,-0.0701
22,CTACAATA,-0.0985
23,TAACTGCA,-0.0376
24,CGCTCGTA,-0.008
25,AAGTGAGA,0.0815

row,Sequence,PBM E-score
1,ATTCTCTC,-0.0576
2,ATCATCAA,0.26
3,TCGATGAA,0.0596
4,GTAGCCCA,0.0106
5,AGCCTGGC,-0.152
6,CGGAACGC,0.116
7,GCAGGGGA,-0.177
8,CGAGACTA,0.0191
9,CGCTTGGC,-0.0261
10,AGTTTAAC,-0.0718
11,GATGCGGC,-0.152
12,CGGACCTC,-0.149
13,GCTATAGA,-0.105
14,CCGGAGTC,-0.258
15,CTGCCTGC,-0.135
16,CACCCCTA,-0.207
17,AGTAGACC,-0.0327
18,CAATATGA,0.214
19,CACCGCCG,-0.127
20,AATCTCTA,0.00206
21,CGTTGCAA,0.0906
22,ATACCCTA,-0.0026
23,CTGTATCC,-0.0284
24,CAAGCTCG,-0.102
25,CCGTTGGC,-0.133

row,Sequence,PBM E-score
1,ATAAACGC,0.00622
2,GCTAAGAC,-0.0555
3,CTAGGGCC,-0.238
4,CCGATCAC,0.145
5,CGTGGGGA,0.219
6,AGGGCCAT,-0.153
7,AGCCCTGC,-0.143
8,GTTCGTCA,0.2
9,TAAACCGA,-0.0568
10,AGCCATGG,-0.128
11,AACGGCTT,-0.154
12,CTCATGTC,0.0937
13,GCAGGTGA,0.185
14,CAGATGAG,-0.00016
15,ATCGGTTC,-0.117
16,AGCCTTCC,-0.184
17,TACGGCTA,0.0379
18,GGAGCCCA,-0.193
19,GACTGTAA,-0.0344
20,GGGGCCAA,-0.149
21,AGAGCTGG,-0.296
22,ACTTAGGA,0.0859
23,GTAGTTAA,0.197
24,GCCTTTGA,-0.0527
25,CAGACGCG,-0.17

row,Sequence,PBM E-score
1,AGCTCCGA,-0.181
2,CCGCTAAG,0.167
3,CGGGCCCG,0.189
4,AGTAGATG,0.1
5,CAGGCCAC,-0.157
6,AGCACGCG,0.154
7,AGCTTGGC,-0.146
8,ACTCATTG,-0.0656
9,GGGAGTAA,0.126
10,GTGACACA,0.343
11,AGGGGTAC,-0.127
12,CTATTCAA,0.151
13,ACCGGGAA,-0.0303
14,GCCTGTTA,-0.00093
15,AGATGAAG,-0.247
16,GGCAACCA,-0.119
17,ATTTCTTC,0.141
18,AGGGGCTG,-0.29
19,ACTCATGG,-0.123
20,CTCGAACA,-0.0456
21,CAATTGAC,-0.101
22,AGTTCTAC,-0.0808
23,ACCGACCG,0.00671
24,CCGTAGCC,-0.12
25,ACTTACTG,0.11

row,Sequence,PBM E-score
1,CCATTGCA,-0.0801
2,ATTTGGCA,-0.0611
3,GAGACTCA,-0.168
4,CCACCGCC,-0.231
5,CTGCCCAG,-0.207
6,CCAGTTAG,-0.147
7,CTGCTTAA,-0.16
8,GGCTAGAC,-0.121
9,CGGCAACG,0.125
10,CTGAAGTA,0.00574
11,ACAACGTG,0.0819
12,CAGCTAAG,-0.039
13,GCAAATCC,-0.0515
14,AGCATCCA,-0.207
15,ATGGTTAG,-0.0847
16,CTCCACAC,-0.109
17,CTATCCTA,-0.00232
18,CGGTAATC,-0.0316
19,GCCGCCAC,-0.198
20,AACCGGAG,-0.0557
21,CTGCAAAG,-0.193
22,GGGGAGCA,-0.208
23,AGGTGCTC,-0.293
24,ACAGTTGC,0.0909
25,ATTTACCA,-0.00739

row,Sequence,PBM E-score
1,CCGCTTCC,-0.0279
2,CCACTTAA,-0.0973
3,AGCCCCAC,-0.236
4,AAACTCGC,-0.0402
5,AAGAGATC,0.0399
6,CATCTACG,0.205
7,GCAGAGGA,-0.00561
8,ACAGTGGC,-0.142
9,GGGCTGGA,-0.124
10,CGTTCAAG,0.165
11,TCCCATAA,-0.123
12,AACACAGT,0.0507
13,CAGTAACG,-0.058
14,TACCTCGA,0.0179
15,GATACCGA,-0.0334
16,GAGAGTAC,-0.134
17,GGATACCA,0.0815
18,AAAGCCTC,-0.0339
19,AAGGTCGT,0.21
20,AGGGAGTC,-0.127
21,CGGAGCTA,-0.143
22,AGGTGGCA,-0.106
23,TATGCCAA,0.0855
24,CCGGTGAA,0.0628
25,AGTGGAGC,-0.277

# Two entries picked at random from the list so far:
row,Sequence,PBM E-score
9,GGGCTGGA,-0.124
12,AACACAGT,0.0507

# (further entries)

row,Sequence,PBM E-score
1,ATAAATCA,0.145
2,GCATTAGA,0.0201
3,CCCTGCAC,0.0099
4,GCGCCGAC,-0.207
5,AACTTGAC,-0.0116
6,CTACGGAA,0.139
7,GGTACTCA,-0.112
8,ATAGCGAT,0.143
9,AGGGCCTC,-0.197
10,CGCGGTAA,0.0434
11,AAGGCTGT,-0.129
12,GGTCGAAA,-0.178
13,GACCCTAC,-0.152
14,CTGCCGTA,0.122
15,GCACCATA,-0.0753
16,CTTTTGTC,0.121
17,TATCACAA,0.25
18,CCCTTCAC,0.0406
19,GGTTCGTA,0.14
20,TCTTTACA,0.142
21,CGCTCCAC,-0.204
22,CATTTTAG,0.183
23,ACAGCCTC,-0.109
24,AGCTAAAA,0.136
25,ATGGCATG,0.198

row,Sequence,PBM E-score
1,TAGAGCAA,-0.183
2,ATTCGAAG,-0.0148
3,CAGCTCAG,-0.158
4,GTCGGCGA,-0.0615
5,TGATCGAA,0.0658
6,TATGCCGA,0.0554
7,AATGGTGT,0.0771
8,ATATTTCC,0.104
9,CCTGTCCC,-0.3
10,TAACGATA,0.36
11,AGAACCTG,-0.138
12,ATGTCGTA,0.235
13,GATTAAAC,0.102
14,CGTGTCCA,-0.124
15,AGGGACTC,-0.269
16,ACCAAGTG,-0.167
17,AGGGCGGA,-0.304
18,CATACAGA,0.0185
19,ATGGAGGC,-0.0901

# Five successive entries already listed:
row,Sequence,PBM E-score
20,AACCGGAG,-0.0557
21,CTGCAAAG,-0.193
22,GGGGAGCA,-0.208
23,AGGTGCTC,-0.293
24,ACAGTTGC,0.0909
